According to the supplement of paper PMC10849652:
This is one part of the list. Residues, ends and D or L forms follow the SMILES beside them. *: point of attachment. Cbz = O=C(OCc1ccccc1)*

Chains of the proteins cited; added tags and fusions are not shown. Lines headed by an entry give the natural chain unless they say otherwise; changes in a name come on top.
UniProt Q96A29: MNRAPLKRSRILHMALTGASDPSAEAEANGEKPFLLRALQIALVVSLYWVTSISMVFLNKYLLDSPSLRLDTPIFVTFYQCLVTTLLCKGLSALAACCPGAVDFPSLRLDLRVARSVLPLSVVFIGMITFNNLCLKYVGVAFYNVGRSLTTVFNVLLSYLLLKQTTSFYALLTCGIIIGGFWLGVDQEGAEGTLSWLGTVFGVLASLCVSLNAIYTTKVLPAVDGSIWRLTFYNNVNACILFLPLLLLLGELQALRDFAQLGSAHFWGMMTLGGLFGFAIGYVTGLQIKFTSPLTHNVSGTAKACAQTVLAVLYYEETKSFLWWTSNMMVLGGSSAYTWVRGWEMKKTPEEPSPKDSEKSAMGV
UniProt P48029: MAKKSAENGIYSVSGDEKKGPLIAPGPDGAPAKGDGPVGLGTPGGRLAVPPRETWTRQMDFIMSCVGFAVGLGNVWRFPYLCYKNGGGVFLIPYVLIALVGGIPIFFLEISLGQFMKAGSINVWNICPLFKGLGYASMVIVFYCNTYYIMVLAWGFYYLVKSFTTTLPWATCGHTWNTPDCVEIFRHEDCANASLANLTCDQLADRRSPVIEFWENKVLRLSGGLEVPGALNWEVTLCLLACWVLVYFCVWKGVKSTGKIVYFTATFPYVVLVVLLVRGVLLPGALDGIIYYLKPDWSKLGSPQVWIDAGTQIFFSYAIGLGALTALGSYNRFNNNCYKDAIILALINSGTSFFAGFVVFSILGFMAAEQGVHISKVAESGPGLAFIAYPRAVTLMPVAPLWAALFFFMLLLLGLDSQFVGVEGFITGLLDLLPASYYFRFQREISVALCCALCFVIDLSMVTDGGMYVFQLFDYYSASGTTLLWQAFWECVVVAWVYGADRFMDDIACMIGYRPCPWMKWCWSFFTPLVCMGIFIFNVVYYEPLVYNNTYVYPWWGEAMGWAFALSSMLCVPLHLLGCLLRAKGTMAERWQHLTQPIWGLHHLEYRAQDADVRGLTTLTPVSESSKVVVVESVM
UniProt Q6P1M0: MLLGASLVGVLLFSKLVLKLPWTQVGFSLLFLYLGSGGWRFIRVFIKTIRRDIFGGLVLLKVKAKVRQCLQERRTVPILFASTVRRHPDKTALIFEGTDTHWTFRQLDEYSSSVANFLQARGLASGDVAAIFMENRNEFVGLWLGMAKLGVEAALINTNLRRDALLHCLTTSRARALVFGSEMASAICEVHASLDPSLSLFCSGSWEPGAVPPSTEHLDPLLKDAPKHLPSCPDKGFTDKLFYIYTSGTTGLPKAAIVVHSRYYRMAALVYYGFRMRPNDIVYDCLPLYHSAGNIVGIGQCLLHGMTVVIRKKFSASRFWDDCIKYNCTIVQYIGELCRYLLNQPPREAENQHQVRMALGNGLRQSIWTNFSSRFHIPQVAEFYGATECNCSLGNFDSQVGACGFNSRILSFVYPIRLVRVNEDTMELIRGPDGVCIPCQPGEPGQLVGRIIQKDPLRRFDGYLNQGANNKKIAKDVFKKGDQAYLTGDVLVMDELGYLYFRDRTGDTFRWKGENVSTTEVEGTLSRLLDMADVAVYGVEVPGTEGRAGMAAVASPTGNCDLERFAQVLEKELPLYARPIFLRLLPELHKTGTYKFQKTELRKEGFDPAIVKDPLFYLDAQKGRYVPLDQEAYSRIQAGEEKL
UniProt Q15043: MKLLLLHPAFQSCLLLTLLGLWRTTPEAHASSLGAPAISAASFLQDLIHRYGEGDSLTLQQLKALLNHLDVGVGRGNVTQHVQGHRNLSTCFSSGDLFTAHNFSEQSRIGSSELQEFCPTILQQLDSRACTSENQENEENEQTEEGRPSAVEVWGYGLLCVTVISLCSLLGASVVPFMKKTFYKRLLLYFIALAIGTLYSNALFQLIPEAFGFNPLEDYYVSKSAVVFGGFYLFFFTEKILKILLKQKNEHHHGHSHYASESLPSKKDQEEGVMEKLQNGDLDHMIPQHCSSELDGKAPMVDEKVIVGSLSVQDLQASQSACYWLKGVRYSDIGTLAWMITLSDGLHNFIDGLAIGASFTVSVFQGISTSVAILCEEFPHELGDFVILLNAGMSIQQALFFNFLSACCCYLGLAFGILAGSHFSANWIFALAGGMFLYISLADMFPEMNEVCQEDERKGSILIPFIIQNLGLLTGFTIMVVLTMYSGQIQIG
UniProt Q70HW3: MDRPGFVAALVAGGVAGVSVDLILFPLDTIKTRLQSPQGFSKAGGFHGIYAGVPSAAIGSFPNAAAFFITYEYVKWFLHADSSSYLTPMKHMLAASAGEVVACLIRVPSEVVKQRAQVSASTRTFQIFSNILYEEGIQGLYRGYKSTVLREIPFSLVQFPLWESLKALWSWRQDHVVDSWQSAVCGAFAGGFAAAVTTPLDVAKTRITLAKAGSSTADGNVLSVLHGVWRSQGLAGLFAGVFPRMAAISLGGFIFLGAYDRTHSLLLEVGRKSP
UniProt Q9UP95: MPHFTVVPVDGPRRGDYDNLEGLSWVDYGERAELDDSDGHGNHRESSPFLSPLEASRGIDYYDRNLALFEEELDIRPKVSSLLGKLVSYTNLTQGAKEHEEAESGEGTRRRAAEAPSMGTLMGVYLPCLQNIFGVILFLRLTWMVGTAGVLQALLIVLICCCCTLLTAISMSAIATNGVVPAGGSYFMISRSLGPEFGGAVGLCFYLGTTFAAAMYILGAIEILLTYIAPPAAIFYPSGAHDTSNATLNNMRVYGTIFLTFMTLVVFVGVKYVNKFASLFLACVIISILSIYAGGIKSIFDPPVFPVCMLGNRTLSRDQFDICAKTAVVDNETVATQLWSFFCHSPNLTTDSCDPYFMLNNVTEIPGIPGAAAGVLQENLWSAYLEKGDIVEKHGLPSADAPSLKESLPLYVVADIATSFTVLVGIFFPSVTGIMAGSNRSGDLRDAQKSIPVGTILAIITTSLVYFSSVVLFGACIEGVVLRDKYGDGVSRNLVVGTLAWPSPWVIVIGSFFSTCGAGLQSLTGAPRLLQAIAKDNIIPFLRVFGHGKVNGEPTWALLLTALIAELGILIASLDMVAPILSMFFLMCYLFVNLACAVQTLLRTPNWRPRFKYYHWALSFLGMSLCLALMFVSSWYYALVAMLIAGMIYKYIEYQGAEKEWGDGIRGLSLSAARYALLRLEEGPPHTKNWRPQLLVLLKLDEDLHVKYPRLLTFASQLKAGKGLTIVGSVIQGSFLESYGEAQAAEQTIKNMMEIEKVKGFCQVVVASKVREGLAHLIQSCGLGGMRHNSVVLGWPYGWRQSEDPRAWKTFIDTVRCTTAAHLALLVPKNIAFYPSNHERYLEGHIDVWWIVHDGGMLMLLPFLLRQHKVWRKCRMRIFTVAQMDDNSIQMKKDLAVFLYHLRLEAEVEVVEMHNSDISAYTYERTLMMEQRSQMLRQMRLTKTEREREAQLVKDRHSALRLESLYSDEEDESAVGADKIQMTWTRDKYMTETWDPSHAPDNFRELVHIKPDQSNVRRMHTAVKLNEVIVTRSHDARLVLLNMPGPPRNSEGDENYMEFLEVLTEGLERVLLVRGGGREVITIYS
UniProt P02730: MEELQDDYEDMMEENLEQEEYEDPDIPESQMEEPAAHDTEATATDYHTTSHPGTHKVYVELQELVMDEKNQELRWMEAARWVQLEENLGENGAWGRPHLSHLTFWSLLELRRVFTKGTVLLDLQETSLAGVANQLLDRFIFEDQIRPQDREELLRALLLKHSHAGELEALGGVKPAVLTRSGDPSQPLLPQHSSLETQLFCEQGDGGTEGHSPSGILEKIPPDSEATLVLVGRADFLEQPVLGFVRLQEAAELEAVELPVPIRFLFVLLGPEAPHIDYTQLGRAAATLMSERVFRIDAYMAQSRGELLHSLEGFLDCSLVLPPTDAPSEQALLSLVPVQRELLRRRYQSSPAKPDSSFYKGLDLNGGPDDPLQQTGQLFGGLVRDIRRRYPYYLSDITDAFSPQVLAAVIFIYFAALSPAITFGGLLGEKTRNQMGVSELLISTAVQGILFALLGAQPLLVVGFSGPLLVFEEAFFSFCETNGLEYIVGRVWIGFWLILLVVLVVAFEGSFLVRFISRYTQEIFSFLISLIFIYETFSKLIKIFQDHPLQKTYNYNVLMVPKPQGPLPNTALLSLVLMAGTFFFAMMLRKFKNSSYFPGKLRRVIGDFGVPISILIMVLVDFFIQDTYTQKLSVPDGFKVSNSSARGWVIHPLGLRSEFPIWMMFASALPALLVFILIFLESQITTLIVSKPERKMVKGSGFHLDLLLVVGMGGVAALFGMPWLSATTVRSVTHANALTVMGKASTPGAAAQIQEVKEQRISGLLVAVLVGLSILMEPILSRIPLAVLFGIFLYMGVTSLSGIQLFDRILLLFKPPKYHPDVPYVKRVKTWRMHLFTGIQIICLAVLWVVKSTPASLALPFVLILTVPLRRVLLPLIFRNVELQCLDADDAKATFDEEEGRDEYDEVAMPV
UniProt Q9ULF5: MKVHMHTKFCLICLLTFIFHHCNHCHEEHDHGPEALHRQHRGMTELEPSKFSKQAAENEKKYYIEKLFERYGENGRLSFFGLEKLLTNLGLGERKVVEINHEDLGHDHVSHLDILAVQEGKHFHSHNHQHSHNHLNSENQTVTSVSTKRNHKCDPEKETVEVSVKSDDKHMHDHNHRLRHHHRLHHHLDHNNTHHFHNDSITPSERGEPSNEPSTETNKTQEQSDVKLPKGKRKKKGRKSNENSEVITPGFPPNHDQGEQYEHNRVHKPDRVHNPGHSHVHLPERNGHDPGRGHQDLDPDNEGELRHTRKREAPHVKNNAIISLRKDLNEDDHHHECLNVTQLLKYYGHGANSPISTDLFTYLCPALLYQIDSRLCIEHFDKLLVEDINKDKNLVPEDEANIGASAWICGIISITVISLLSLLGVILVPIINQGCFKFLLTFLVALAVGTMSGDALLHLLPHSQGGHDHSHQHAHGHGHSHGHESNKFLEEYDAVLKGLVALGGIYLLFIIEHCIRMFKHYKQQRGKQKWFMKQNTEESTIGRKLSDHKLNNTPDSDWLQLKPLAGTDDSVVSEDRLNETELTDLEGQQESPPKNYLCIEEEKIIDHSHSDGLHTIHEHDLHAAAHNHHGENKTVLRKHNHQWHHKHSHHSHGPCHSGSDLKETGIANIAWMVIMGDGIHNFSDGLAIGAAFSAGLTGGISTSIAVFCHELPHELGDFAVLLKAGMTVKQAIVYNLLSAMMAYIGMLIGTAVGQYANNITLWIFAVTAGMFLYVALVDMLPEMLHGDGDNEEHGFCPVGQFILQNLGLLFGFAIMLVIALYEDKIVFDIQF
UniProt Q96DW6: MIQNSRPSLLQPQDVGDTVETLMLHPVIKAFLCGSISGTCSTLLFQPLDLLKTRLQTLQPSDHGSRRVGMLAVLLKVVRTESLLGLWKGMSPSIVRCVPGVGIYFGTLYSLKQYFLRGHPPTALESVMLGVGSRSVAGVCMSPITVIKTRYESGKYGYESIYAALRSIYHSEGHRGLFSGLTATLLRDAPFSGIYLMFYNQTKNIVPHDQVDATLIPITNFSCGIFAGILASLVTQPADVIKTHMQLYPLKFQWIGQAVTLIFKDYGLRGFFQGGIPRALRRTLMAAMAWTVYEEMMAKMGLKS
UniProt O15431: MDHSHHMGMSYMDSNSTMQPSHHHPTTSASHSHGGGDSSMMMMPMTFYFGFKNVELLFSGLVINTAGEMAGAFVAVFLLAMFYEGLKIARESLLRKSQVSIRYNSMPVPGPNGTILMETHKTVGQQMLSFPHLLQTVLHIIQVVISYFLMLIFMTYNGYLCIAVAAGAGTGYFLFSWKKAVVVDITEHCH
UniProt P78382: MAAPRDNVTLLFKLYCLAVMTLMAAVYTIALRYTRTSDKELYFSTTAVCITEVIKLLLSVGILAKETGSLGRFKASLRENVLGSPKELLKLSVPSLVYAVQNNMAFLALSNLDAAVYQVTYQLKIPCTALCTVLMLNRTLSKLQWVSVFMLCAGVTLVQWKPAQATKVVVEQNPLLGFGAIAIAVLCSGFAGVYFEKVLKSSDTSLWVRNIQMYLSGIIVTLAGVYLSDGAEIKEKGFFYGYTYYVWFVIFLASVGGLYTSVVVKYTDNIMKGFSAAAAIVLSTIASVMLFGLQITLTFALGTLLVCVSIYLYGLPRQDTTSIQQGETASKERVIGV
UniProt Q96GZ6: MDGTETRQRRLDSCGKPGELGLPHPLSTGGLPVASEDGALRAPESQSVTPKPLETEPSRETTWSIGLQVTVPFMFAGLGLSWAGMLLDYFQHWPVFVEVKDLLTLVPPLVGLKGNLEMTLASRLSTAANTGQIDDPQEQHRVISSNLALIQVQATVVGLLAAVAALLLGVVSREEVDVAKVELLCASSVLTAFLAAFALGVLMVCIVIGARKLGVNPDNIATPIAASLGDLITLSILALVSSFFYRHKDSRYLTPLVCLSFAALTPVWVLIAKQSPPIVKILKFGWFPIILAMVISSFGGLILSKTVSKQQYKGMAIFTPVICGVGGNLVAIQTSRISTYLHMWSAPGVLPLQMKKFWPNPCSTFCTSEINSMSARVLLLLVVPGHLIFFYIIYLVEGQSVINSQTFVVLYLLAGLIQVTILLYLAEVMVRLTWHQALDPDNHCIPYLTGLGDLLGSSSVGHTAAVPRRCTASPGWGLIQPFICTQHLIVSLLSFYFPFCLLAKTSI

Tests used:
Assay in all cases: log2 fold change, soluble protein after heating vs DMSO (PISA); higher = thermal stabilisation; K562 cells, 10 uM, 30 min; active = over 0.2 and 3.5 SD of the protein, either way, in both replicates (recomputed)
IRAK-1-4 Inhibitor I = compound: C1COCCN1CCN2C3=CC=CC=C3N=C2NC(=O)C4=CC(=CC=C4)[N+](=O)[O-] [IRAK-1-4 Inhibitor I]
Outline: (§1)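 For each measurement, 10 μM compound was applied for 30 min to K562 cells at 2×10^6 cells/mL. Aliquots were heated for 3 min across 48°C-58°C, pooled, and extracted in PBS with 0.5% NP-40 at 4°C; the supernatant after 21,000xg for 90 min was soluble protein. This was quantified by TMTpro 16plex LC-MS/MS with channel sums equalised, and thermal stability was reported relative to control samples from duplicates, on a log2 fold-change scale.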

ibrutinib = compound: C=CC(=O)N1CCC[C@@H](n2nc(-c3ccc(Oc4ccccc4)cc3)c3c(N)ncnc32)C1 [ibrutinib]
Outline: as §1

[1] = compound: CC(=O)c1cnc2ccc(-c3cc(Cl)c(O)c(Cl)c3)nc2c1N[C@H]1CC[C@H](CN(C)C)CC1
Outline: as §1

ralimetinib = compound: CC(C)(C)Cn1c(N)nc2ccc(-c3[nH]c(C(C)(C)C)nc3-c3ccc(F)cc3)nc21 [ralimetinib]
Outline: as §1

[2] = compound: CC(C)(O)CC(=O)NCCn1ccc2ncnc(Nc3ccc(Oc4cccc(C(F)(F)F)c4)c(Cl)c3)c21
Outline: as §1

[3] = compound: CC(C)C1=C2N=C(C=C(N2N=C1)NCC3=CC=CC=C3)NCCCCCCN
Outline: as §1

[4] = compound: CC(C)C[C@@H](C=O)NC(=O)[C@H](CC(C)C)NC(=O)[C@H](CC(C)C)NC(=O)OCc1ccccc1
Outline: as §1

pinometostat = compound: CC(C)N(C[C@H]1O[C@@H](n2cnc3c(N)ncnc32)[C@H](O)[C@@H]1O)[C@H]1C[C@@H](CCc2nc3cc(C(C)(C)C)ccc3[nH]2)C1 [pinometostat]
Outline: as §1

[5] = compound: CC1=C(C(CC(=O)N1)C2=CC=C(C=C2)C(F)(F)F)C(=O)NC3=C(C=C4C(=C3)C=NN4)F
Outline: as §1

[6] = compound: CC1=C(C2=C(C=C1)C(=O)C3=CC=CC=C3N2CCCN)C
Outline: as §1

Row | Target | log2 fold change (IRAK-1-4 Inhibitor I) | log2 fold change (ibrutinib) | log2 fold change [1] | log2 fold change (ralimetinib) | log2 fold change [2] | log2 fold change [3] | log2 fold change [4] | log2 fold change (pinometostat) | log2 fold change [5] | log2 fold change [6]
1 | SLC12A2 (UniProt P55011) | inactive: 0.02 | inactive: 0.033 | inactive: -0.063 | inactive: -0.025 | inactive: -0.03 | inactive: 0.159 | inactive: 0.013 | inactive: -0.01 | inactive: 0.008 | inactive: 0.036
2 | SLC35C1 (UniProt Q96A29) | inactive: -0.023 | inactive: 0.027 | inactive: 0.065 | inactive: 0.046 | inactive: -0.075 | inactive: 0.061 | inactive: 0.048 | inactive: 0.073 | inactive: -0.037 | inactive: -0.042
3 | SLC6A8 (UniProt P48029) | inactive: 0.016 | inactive: 0.058 | inactive: 0.044 | inactive: 0.013 | inactive: -0.105 | inactive: 0.046 | inactive: -0.002 | inactive: -0.009 | inactive: 0.17 | inactive: 0.183
4 | SLC35B3 (UniProt Q9H1N7) | inactive: 0.032 | inactive: 0.03 | inactive: -0.094 | inactive: 0.119 | inactive: -0.026 | inactive: 0.005 | inactive: 0.006 | inactive: 0.031 | inactive: 0.082 | inactive: -0.028
5 | SLC20A2 (UniProt Q08357) | inactive: 0.028 | inactive: 0.003 | inactive: 0.056 | inactive: -0.09 | inactive: 0.028 | inactive: 0.016 | inactive: 0.175 | inactive: 0.042 | inactive: -0.066 | inactive: 0.023
6 | SLC27A4 (UniProt Q6P1M0) | inactive: -0.042 | inactive: 0.022 | inactive: -0.034 | inactive: 0.003 | inactive: 0.072 | inactive: -0.11 | inactive: -0.044 | inactive: 0.039 |  | inactive: 0.104
7 | SLC39A14 (UniProt Q15043) | inactive: 0.023 | inactive: 0.013 | inactive: -0.019 | inactive: -0.093 | inactive: 0.034 | inactive: 0.026 | inactive: 0.018 | inactive: -0.032 | inactive: -0.009 | inactive: -0.058
8 | SLC25A26 (UniProt Q70HW3) | inactive: 0.022 | inactive: -0.012 | inactive: -0.013 | inactive: -0.087 | inactive: -0.031 | inactive: -0.086 | inactive: 0.083 | inactive: 0.176 | inactive: -0.023 | inactive: 0.152
9 | SLC12A4 (UniProt Q9UP95) | inactive: -0.004 | inactive: -0.029 | inactive: -0.033 | inactive: 0.036 | inactive: 0.013 | inactive: -0.042 | inactive: -0.002 | inactive: -0.011 | inactive: 0.021 | inactive: -0.076
10 | SLC35A4 (UniProt L0R6Q1) | inactive: 0.039 | inactive: 0.034 | inactive: 0 | inactive: -0.052 | inactive: -0.008 | inactive: 0.053 | inactive: -0.024 | inactive: -0.04 | inactive: 0.049 | inactive: 0.141
11 | SLC25A6 (UniProt P12236) | inactive: 0.028 | inactive: 0 | inactive: 0.023 | inactive: -0.059 | inactive: 0.02 | inactive: 0.07 | inactive: -0.031 | inactive: -0.018 | inactive: 0.026 | inactive: 0.039
12 | SLC25A25 isoform 3 (UniProt Q6KCM7) | inactive: -0.001 | inactive: 0.002 | inactive: 0.029 | inactive: -0.013 | inactive: 0.016 | inactive: 0.005 | inactive: -0.01 | inactive: -0.042 | inactive: 0.019 | inactive: 0.034
13 | SLC4A1 (UniProt P02730) | inactive: -0.034 | inactive: 0.098 | inactive: -0.078 | inactive: -0.116 | inactive: 0.025 | inactive: 0.079 | inactive: -0.015 | inactive: 0.022 | inactive: -0.002 | inactive: 0.17
14 | SLC3A2 isoform 3 (UniProt P08195) | inactive: 0.067 | inactive: 0.045 | inactive: -0.021 | inactive: 0.001 | inactive: 0 | inactive: 0.169 | inactive: 0.013 | inactive: -0.054 | inactive: -0.024 | inactive: 0.033
15 | SLC29A2 (UniProt Q14542) | inactive: -0.026 | inactive: 0.028 | inactive: -0.024 | inactive: 0.005 | inactive: 0.033 | inactive: 0.116 | inactive: 0.053 | inactive: -0.115 | inactive: -0.007 | inactive: 0.103
16 | SLC5A6 (UniProt Q9Y289) | inactive: 0.004 | inactive: 0.022 | inactive: 0.031 | inactive: -0.063 | inactive: -0.002 | inactive: 0.165 | inactive: -0.021 | inactive: -0.018 | inactive: 0.002 | inactive: 0.007
17 | SLC39A10 (UniProt Q9ULF5) | inactive: 0.031 | inactive: 0.057 | inactive: -0.007 | inactive: 0.034 | inactive: 0.025 | inactive: 0.187 | inactive: 0.022 | inactive: -0.007 | inactive: -0.012 | inactive: 0.027
18 | SLC3A2 (UniProt F5GZS6) | inactive: 0.059 | inactive: 0.092 | inactive: 0.006 | inactive: 0.21 | inactive: 0.029 | inactive: 0.095 | inactive: -0.248 | inactive: -0.046 | inactive: 0.036 | inactive: -0.033
19 | SLC25A44 (UniProt Q96H78) | inactive: 0.028 | inactive: 0.032 | inactive: 0.021 |  | inactive: 0.054 |  |  | inactive: 0.003 | inactive: 0.014 | inactive: 0.039
20 | SLC35E2B (UniProt P0CK96) | inactive: -0.019 | inactive: 0.009 |  | inactive: -0.095 |  |  | inactive: -0.018 | inactive: 0.012 |  | 
21 | SLC25A38 (UniProt Q96DW6) | inactive: 0.005 | inactive: -0.001 | inactive: 0.003 | inactive: -0.053 | inactive: 0.035 | inactive: 0.049 | inactive: -0.018 | inactive: -0.03 |  | inactive: 0.01
22 | SLC18B1 (UniProt Q6NT16) | inactive: 0.135 | inactive: 0.042 | inactive: 0.016 | inactive: -0.044 | inactive: -0.023 | active: -0.356 | inactive: -0.05 | inactive: 0.02 |  | inactive: -0.036
23 | SLC38A7 (UniProt Q9NVC3) | inactive: 0.035 | inactive: 0.073 | inactive: 0.092 | inactive: 0.205 | inactive: -0.085 | active: -0.751 | inactive: -0.024 | inactive: 0.033 |  | inactive: 0.007
24 | SLC31A1 (UniProt O15431) | inactive: 0.098 | inactive: 0.047 | inactive: -0.017 | inactive: -0.138 | inactive: -0.075 | inactive: 0.158 | inactive: 0.017 | inactive: -0.051 |  | inactive: 0.057
25 | SLC25A42 (UniProt Q86VD7) | inactive: 0.034 | inactive: 0.045 | inactive: -0.002 | inactive: 0.041 | inactive: 0.015 | inactive: 0.014 | inactive: -0.037 | inactive: -0.027 |  | inactive: 0.077
26 | SLC35A1 (UniProt P78382) | inactive: -0.057 | inactive: 0.119 | inactive: -0.027 | inactive: -0.049 | inactive: -0.056 | inactive: 0.066 | inactive: 0.007 | inactive: -0.055 |  | inactive: 0.138
27 | SLC41A3 isoform 9 (UniProt Q96GZ6) | inactive: -0.103 | inactive: -0.103 | inactive: -0.092 |  | inactive: -0.034 | inactive: 0 |  | inactive: 0.184 | inactive: 0.128 | inactive: 0.045

2 entries from above in another layout:
Row	Target	log2 fold change (IRAK-1-4 Inhibitor I)	log2 fold change (ibrutinib)	log2 fold change [1]	log2 fold change (ralimetinib)	log2 fold change [2]	log2 fold change [3]	log2 fold change [4]	log2 fold change (pinometostat)	log2 fold change [5]	log2 fold change [6]
3	SLC6A8 (UniProt P48029)	inactive: 0.016	inactive: 0.058	inactive: 0.044	inactive: 0.013	inactive: -0.105	inactive: 0.046	inactive: -0.002	inactive: -0.009	inactive: 0.17	inactive: 0.183
13	SLC4A1 (UniProt P02730)	inactive: -0.034	inactive: 0.098	inactive: -0.078	inactive: -0.116	inactive: 0.025	inactive: 0.079	inactive: -0.015	inactive: 0.022	inactive: -0.002	inactive: 0.17
